Data as given in PubChem BioAssay AID720505 (Drosophila RNAi Screening Center, 2013)

Assay: 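Genes needed for store-operated calcium entry in fly cells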 (primary screen)
System: Drosophila S2R+ cells
Knock-down reagent: long dsRNA against Drosophila genes
Treatment: thapsigargin (2 µM) in calcium-free buffer to empty internal stores, then 2 mM calcium added back
Measurement: 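Fluo-4 signal in 384-well plates read on a FLIPR after thapsigargin (2 µM, calcium-free) store depletion and 2 mM calcium add-back; unnormalised mean endpoint per well; screen run twice, selected wells retested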
Scale: calcium signal and retest calcium signal: higher = more calcium entry after store depletion
Active means: 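Knock-downs counted as hits when calcium entry dropped relative to STIM1 positive and Rho1 negative controls present on each plate; roughly 1500 genes called, with reductions of differing size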
Meaning of the calls: active = called as lowering calcium entry; inactive = not called
The deposit covers about 20,000 reagents; below is an unselected part of those with a known target gene and a result. In the full data, about 2,100 (10%) got an active call. 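Raw plate signals without normalisation; calls rest on control-based scores that were not deposited; replicate 2 separates called from uncalled poorly.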 A number with no mark means an inactive call. Names joined by + are all predicted targets of the reagent. Not stated in the record: the amount of reagent, the time to read-out.

gene,PubChem SID,"calcium signal, replicate 1","calcium signal, replicate 2","retest calcium signal, replicate 1","retest calcium signal, replicate 2"
CR33317,SID104182445,164,113,,
Cpr92F,SID104195611,256,176,,
Gr22f,SID104179868,83.6,136,,
CG3726,SID104198112,58.7 (active),124,138,97.9
CG3726,SID104202500,114,142,,
CG8372,SID104182878,154,252,,
swa,SID104198634,94.4,99.6,,
Jon25Bii,SID104182906,155,126,,
CG12998,SID104199310,84.1,128,,
Inos,SID104187447,152,135,,
VhaAC39-2,SID104195401,204,184,,
CG12325,SID104185922,183,103,,
SK,SID104197543,107,88.3,,
SK,SID104197679,122,79,,
SK,SID104197680,122,107,,
SK,SID104198145,88.7,76.5,,
SK,SID104201488,86.2,147,,
Ugt35E2,SID104195875,63.9 (active),88.4,,
Pde6,SID104196193,137,160,,
Pde6,SID104196194,106,169,,
Pde6,SID104196195,81.5,137,,
Prx6c + CG12896 + Prx6b,SID104185940,129,157,,
how,SID104196758,246,156,,
Mrgn1,SID104200015,187,133,,
CG31370,SID104201194,184,104,,
CG14740,SID104194752,124,129,,
JhI-21,SID104181953,112,98.2,,
CG5139,SID104180473,181,88.5,,
CG5096,SID104182605,150,142,,
CG9072,SID104199939,96.9,135,,
NPFR,SID104191965,119,134,,
CG15651,SID104184034,222,91.6,,

A portion of the results above, as a working copy:
gene,PubChem SID,"calcium signal, replicate 1","calcium signal, replicate 2","retest calcium signal, replicate 1","retest calcium signal, replicate 2"
Gr22f,SID104179868,83.6,136,,
CG3726,SID104198112,58.7 (active),124,138,97.9
CG3726,SID104202500,114,142,,
CG8372,SID104182878,154,252,,
swa,SID104198634,94.4,99.6,,
Jon25Bii,SID104182906,155,126,,
CG12998,SID104199310,84.1,128,,

Additional reagents follow:
gene,PubChem SID,"calcium signal, replicate 1","calcium signal, replicate 2","retest calcium signal, replicate 1","retest calcium signal, replicate 2"
knon,SID104186841,186,127,,
Alr,SID104199261,47.1 (active),89.3,,
mRF1,SID104182672,87.3,90.5,,
CG44014 + CG44013,SID104194787,145,173,,
pigeon,SID104183357,129,123,,
Task6,SID104196322,171,203,,
CG11498,SID104194107,218,138,,
CG1688,SID104185726,165,193,,
CG1688,SID104202564,114,145,,
asRNA:Eig63F-2 + Eip63F-1,SID104201188,180,84.2,,
hpRNA:CR18854 + IP3K1,SID104182010,91.2,130,,
RpS10a,SID104193953,119,129,,
CG13962,SID104182096,124,104,,
cbc,SID104186749,123,109,,
Hph,SID104191956,88.8,142,,
Hph,SID104192043,103,76.6,,
Hph,SID104201511,79.6,153,,
CG10912,SID104185801,168,84.7,,
CG16985,SID104188293,67.7,72.3,,
Atu,SID104191915,157,169,,
BobA,SID104189681,100,116,,
nol,SID104201174,158,118,,
Lztr1,SID104197968,121,172,,
Lztr1,SID104198439,109,171,,
